Data taken from PMC10082759, “Shieldin complex assembly kinetics and DNA binding by SHLD3” (Communications Biology, 2022).
No constants are given. Whether binding was seen depends on the method and setting. Where a sequence is shown, tags or fusion partners need not be part of it.

Target: T1, GST-SHLD3^1–62 (human) (UniProt Q6ZNX1)
T1 sequence: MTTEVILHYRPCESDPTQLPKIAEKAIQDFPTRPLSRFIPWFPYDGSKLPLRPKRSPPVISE
Test: SEC; Shieldin assembly: 5 µM of MBP-SHLD2^1–60, GST-SHLD3^1–62 and REV7 mutants, 60 min on ice, Superdex-200 3.2/300 in buffer B; both purified

binding: no binding (tested: 5 µM)
Substance: REV7^ΔC (human) (domain or fragment)
